Experimental data published in publication PMC6600671, “Design and Synthesis of Indoleamine 2,3-Dioxygenase 1 Inhibitors and Evaluation of Their Use as Anti-Tumor Agents” (Molecules, 2019).

Amino acid sequences for entries named in this document (tags omitted). A change or cut given only in a name is not applied to a line headed by its entry.
UniProt P48775: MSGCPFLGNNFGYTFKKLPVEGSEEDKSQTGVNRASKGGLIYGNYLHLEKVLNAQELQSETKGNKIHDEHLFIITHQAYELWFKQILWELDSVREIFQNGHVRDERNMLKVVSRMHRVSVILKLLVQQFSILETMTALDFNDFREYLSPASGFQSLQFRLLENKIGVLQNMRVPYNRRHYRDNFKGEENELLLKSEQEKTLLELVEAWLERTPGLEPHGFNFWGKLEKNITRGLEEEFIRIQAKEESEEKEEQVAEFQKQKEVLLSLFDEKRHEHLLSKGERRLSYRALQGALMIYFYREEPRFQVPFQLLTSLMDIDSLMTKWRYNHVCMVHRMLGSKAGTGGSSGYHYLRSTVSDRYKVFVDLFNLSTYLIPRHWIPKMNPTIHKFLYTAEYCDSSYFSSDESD
UniProt P14902, whole entry: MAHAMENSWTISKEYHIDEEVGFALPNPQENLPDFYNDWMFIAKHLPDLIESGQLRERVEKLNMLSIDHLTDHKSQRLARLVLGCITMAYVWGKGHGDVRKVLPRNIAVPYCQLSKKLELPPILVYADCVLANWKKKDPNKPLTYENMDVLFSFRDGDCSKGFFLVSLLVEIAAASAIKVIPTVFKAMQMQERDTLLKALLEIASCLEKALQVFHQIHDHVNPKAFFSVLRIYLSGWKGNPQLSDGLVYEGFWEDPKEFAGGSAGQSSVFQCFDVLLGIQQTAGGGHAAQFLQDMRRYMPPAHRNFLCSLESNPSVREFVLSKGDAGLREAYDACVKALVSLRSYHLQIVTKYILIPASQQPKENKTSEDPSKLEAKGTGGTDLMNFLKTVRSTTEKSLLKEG

What was measured:
rhTDO = rhTDO (Homo sapiens, UniProt P48775); assay: Enzyme-based TDO activity assay (kynurenine absorbance at 492 nm); type: biochemical; details: shown when calculated IC50 >50 μM, read-out: TDO inhibition rate (%) at 50 μM
Experimental: (§1) The compounds on IDO1 or TDO activity were determined as follows: A standard reaction mixture (100 μL) containing 100 mM potassium phosphate buffer (pH 6.5), 40 mM ascorbic acid (neutralized with NaOH), 200 μg/mL catalase, 20 μM methylene blue and 0.05 μM rhIDO1 or rhTDO was added to the solution containing the substrate L-tryptophan and the test sample at a determined concentration. […] The yellow pigment derived from kynurenine was measured at 492 nm using a SYNERGY-H1 microplate reader (Biotek Instruments, Inc., Winooski, VT, USA). IC50 was analyzed using the GraphPad Prism 8.0 software (GraphPad Software, San Diego, CA, USA).

rhIDO1 = rhIDO1 (Homo sapiens, UniProt P14902); assay: Enzyme-based IDO1 activity assay (kynurenine absorbance at 492 nm); type: biochemical; details: shown when calculated IC50 >50 μM, read-out: IDO inhibition rate (%) at 50 μM
Experimental: as §1

SMILES: Nc1nc2ccc(OC(F)(F)F)cc2s1 [DX-01-21]
- inhibition at 50 µM (rhTDO): 9.2%
- inhibition at 50 µM (rhIDO1): 9.7%
